Drawing on PubChem BioAssay AID2685 (National Center for Advancing Translational Sciences (NCATS), 2010), this text covers cell number change and AC50 for 35 molecules.

Each structure is given as a SMILES string. The list shows a part of the results. Shown are side measurements of this screen, not its main read-out; they come without a call. Compounds called inactive in the main read-out are mostly missing here. Potencies come from curve fits of mixed quality, noted in brackets.

The term AC50 denotes the midpoint of the concentration-response curve, whichever way the signal moves. The low end stands for greater potency, the high end for weaker potency.

The nature of the assay: qHTS Assay for Lipid Storage Modulators in Drosophila S3 Cells.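 On cell number change: cells counted by Cell Tracker Red CMTPX staining in the red channel.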 To be noted: BODIPY lipid droplet fluorescence, 18-24 h; for cell number change: measured here: cell count max response, cells fed with added oleic acid. Summed up:
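Laser-scanning cytometry quantifies lipid droplet accumulation (500–530 nm total intensity; droplet/cell object ratio) in oleic acid-fed (400 uM added) Drosophila S3 cells treated with a concentration series. 20 uM Triacsin C defined 100% inhibition.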

Setting [1] is: measured here: cell number channel AC50, cells fed with added oleic acid.
Setting [2] is: measured here: lipid fluorescence (Fed channel) AC50, cells fed with added oleic acid.

For the molecule `O=C(COC(=O)c1ccc(Cl)c(S(=O)(=O)NCc2ccccc2)c1)NCC1CCCO1` (centres undefined), the cell number change was -71.4%. The AC50 under setting [1] is 18.4 µM [falling, partial curve]. Also, the AC50 under setting [2] was 1.64 µM [falling, partial curve].
As to `C=CCOc1ccc(NC(=O)C2CC(=O)N(C(C)C)C2)cc1` (centres undefined), the cell number change was -1.29%. The AC50 under setting [2] is 0.58 µM [falling, single point].
In the case of `CCCN(C(=O)CCl)C1=CCCCC1`, the cell number change turned out to be 8.03%.
On to `CC(C)(C)c1ccc(N2C(=O)Cc3c2nc(N)c(C#N)c3N)cc1`, for which the cell number change was -17.7%. Besides, under setting [2], the AC50 is 0.58 µM [rising, partial curve].
Take `COc1ccc(C(=O)C2CCCN(C(=O)c3csc(C(C)=O)c3)C2)c(C)c1` (centres undefined): the cell number change was -11.6%. Also, the AC50 under setting [1] is 0.0058 µM [falling, full curve, poor fit]. For the same molecule, under setting [2], the AC50 is 0.517 µM [falling, full curve].
`O=C(O)C1CC=CCC1C(=O)Nc1ccccc1C(=O)N1CCN(c2ccccc2)CC1` (centres undefined): the cell number change was -14.9%. For the same molecule, under setting [1], the AC50 is 6.51 µM [falling, single point]. Further, under setting [2], the AC50 was 29.1 µM [falling, partial curve].
As to `O=C(NNC(=S)NC(=O)c1cn(-c2ccccc2)nc1-c1ccccc1)c1ccncc1`, the cell number change is -27.5%. Under setting [2], the AC50 is 3.66 µM [falling, partial curve, poor fit].
`COc1ccc2[nH]c(=O)c(CN(C(=O)c3cccnc3)c3ccc(C)cc3)cc2c1`: the cell number change was -15.4%. The AC50 under setting [2] is 8.2 µM [falling, partial curve].
For `O=C(c1ccc(-c2ccccc2)cc1)N1CCN(c2ccccn2)CC1`, the cell number change was -48.3%. The AC50 under setting [1] is 29.1 µM [falling, partial curve].
As for `Cc1nnc(N2C(=O)c3cccc4cccc(c34)C2=O)s1`, the cell number change is 52.5%. Also, the AC50 under setting [1] is 20.6 µM [rising, single point]. The AC50 under setting [2] is 29.1 µM [rising, single point].
Turning to `OC(CNCCc1ccc(C(F)(F)F)cc1)COC(c1ccccc1)c1ccccc1` (centres undefined), the cell number change was -69.8%. In addition, under setting [1], the AC50 was 4.11 µM [falling, full curve]. Besides, the AC50 under setting [2] is 5.17 µM [falling, full curve].
In the case of `Cc1ccccc1-n1nnnc1SCC(=O)c1c(N)n(C)c(=O)n(C)c1=O`, the cell number change was 14.4%.
`N#C/C(=C\c1c(Oc2ccc(Cl)cc2)nc2ccccn2c1=O)C(=O)NC1CCS(=O)(=O)C1` (centres undefined): the cell number change is -34.1%. The AC50 under setting [1] was 32.6 µM [falling, single point]. Moreover, under setting [2], the concentration at half-maximal activity (AC50) was 29.1 µM [falling, single point].
As to `CC(CN1CCCCC1)OC(=O)c1ccc2c(c1)OCCO2` (centres undefined), the cell number change was -7.69%. Further, the AC50 under setting [2] is 5.17 µM [falling, single point].
In the case of `O=C(Nc1cccnc1)c1scc2c1OCCO2`, the cell number change was -1.36%. Also, the AC50 under setting [2] was 0.731 µM [rising, full curve].
`COc1cc2c3c(c1)C1(C(=O)N3C(C)(C)C=C2C)C(C#N)=C(N)Oc2cc(C)oc(=O)c21` (centres undefined): the cell number change is -2.04%. Moreover, the AC50 under setting [2] was 5.17 µM [rising, single point].
Take `CC(C)(C)OC(=O)N[C@@H](Cc1ccccc1)C(=O)N[C@@H](CO)[C@H](O)[C@@H]1C[C@@H]1C(=O)NC1CC1`: the cell number change was found to be 1.2%.
Consider `CC(=O)Nc1nc(C)c(-c2nc3ccc([N+](=O)[O-])cc3[nH]2)s1`, for which the cell number change stood at 14.9%. In addition, the AC50 under setting [2] was 6.51 µM [rising, partial curve, poor fit].
For the molecule `CC1Cc2nc(SCC(=O)N3CCN(c4ccccc4)CC3)n(C)c(=O)c2S1` (centres undefined), under setting [2], the AC50 is 0.58 µM [rising, single point].
Take `NC(=S)N/N=C/c1ccccc1OC(=O)c1cc2ccccc2oc1=O`: the cell number change stood at 24.2%. For the same molecule, the AC50 under setting [2] was 32.6 µM [falling, single point].
`Cc1ccccc1CS(=O)(=O)CC(O)CN1CCCC1=O` (centres undefined): the cell number change was -11.7%. Besides, the AC50 under setting [2] was 29.1 µM [rising, single point].
Turning to `Cc1ccc(NC(=O)c2ccc(Cl)c(NC(=O)c3cccs3)c2)cc1`, the AC50 under setting [2] was 32.6 µM [falling, single point].
For `COc1ccccc1C1c2ccc3ccccc3c2Oc2ncn(CCN(C)C)c(=N)c21` (centres undefined), the cell number change was -11.1%. In addition, the concentration at half-maximal activity (AC50) under setting [2] was 0.82 µM [falling, full curve].
For the molecule `C=CCN1CCN(C(=O)c2cc3c(s2)CCCC3)CC1`, the cell number change worked out at 38.4%. Moreover, the half-maximal activity concentration (AC50) under setting [1] was 16.4 µM [rising, partial curve, poor fit]. The AC50 under setting [2] was 13 µM [rising, partial curve, poor fit].
In the case of `Cc1cccc(NC(=O)CSc2nc3[nH]c(=O)cc(O)c3s2)c1`, the cell number change is -40.9%. Moreover, the AC50 under setting [1] was 23.1 µM [falling, single point]. Moreover, under setting [2], the AC50 is 29.1 µM [falling, single point].
`Cc1cc(O)c(C=Nc2ccc(N3CCOCC3)cc2)c(C)c1Cl`: the cell number change stood at 16.4%. The AC50 under setting [2] was 29.1 µM [rising, single point].
In the case of `Cn1c(=O)c2c(nc(N3CCCCC3)n2C)n(C)c1=O`, the cell number change came to 86.9%. Besides, the AC50 under setting [1] is 13 µM [rising, partial curve, poor fit]. Further, under setting [2], the AC50 is 16.4 µM [rising, partial curve].
Take `COc1ccc(NC(=O)CCc2nnc3ccc(N4CCC5(CC4)OCCO5)nn23)cc1`: the cell number change was -16.7%. For the same molecule, the AC50 under setting [2] is 1.3 µM [falling, full curve].
With `Cc1ccc(C)c(N2C(=O)c3cc(N4CCOCC4)c([N+](=O)[O-])cc3C2=O)c1`, the cell number change was -45.5%. The AC50 under setting [1] was 5.8 µM [falling, full curve]. Under setting [2], the AC50 is 5.17 µM [falling, full curve].
Consider `CCOC(=O)c1c(C)[nH]c(N=Nc2ccccc2)c1C`, for which the AC50 under setting [1] is 0.651 µM [rising, partial curve] and the AC50 under setting [2] was 0.82 µM [rising, full curve].
Consider `O=C(Cn1cc(C(=O)C2CC2)c2ccccc21)Nc1ccccc1Cl`, for which the cell number change came to 12.2%.
Regarding `O=C(C1CCN(S(=O)(=O)c2ccccc2[N+](=O)[O-])CC1)N1CCOCC1`, the AC50 under setting [1] is 0.291 µM [falling, single point].
Take `N#Cc1c(N2C(=O)Nc3ccccc3N2O)sc2c1CCCCCC2`: the cell number change was 19.3%. In addition, under setting [2], the AC50 was 3.26 µM [rising, full curve, poor fit].
Consider `CCOCCn1ccc2c(OCC(=O)NCCc3ccc(OC)c(OC)c3)cccc2c1=O`, for which the cell number change was -50%. In addition, the AC50 under setting [1] was 32.6 µM [falling, single point]. Under setting [2], the half-maximal activity concentration (AC50) is 29.1 µM [falling, single point].
For `CCc1cc(CNC(=O)c2cc(COc3ccc(C)nc3)on2)on1`, the cell number change was 13.9%. In addition, the AC50 under setting [2] is 29.1 µM [rising, single point].
